For at least one compound, name, drawing or mass did not settle the structure.
System: primary human T cells
Assay: Tet-On system for doxycycline-inducible tBID expression, T cell apoptosis by flow cytometry
Type: cell-based
Details: T cells engineered with Tet-On controlling tBID expression, doxycycline titration

## C[C@H]1c2cccc(O)c2C(=O)C2=C(O)[C@]3(O)C(=O)C(C(N)=O)=C(O)[C@@H](N(C)C)[C@@H]3[C@@H](O)[C@@H]21 [doxycycline]
  regulation of T cell apoptosis: titratably regulate apoptosis of T cells
